Source: PubChem BioAssay AID1259254 (NCATS, 2017)
Test: 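Finding genes that stop cells copying their DNA twice in one cycle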 (primary screen). Cells: human HCT116 colorectal cancer cells. Reagent: single siRNA against human genes. Timing: 3 days. Measurement: 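Nuclei stained with Hoechst and imaged; cell-cycle phase assigned by DNA content; G2 share scaled per plate, non-targeting siRNA 0%, GMNN siRNA 100%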. Reading the numbers: G2 robust z-score and G2 cells, % of GMNN control: higher = more G2 cells, more excess DNA replication. Active means: 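Active siRNAs have a G2 robust z of 5 or more median absolute deviations over the median, which in these data means about 38% or higher of GMNN control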.
The whole screen tested about 59,000 reagents; this is a part drawn at random. About 1,550 of them (2.6%) count as active. 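G2 share is only a proxy for re-replication; each gene was hit by three separate siRNAs, and active genes were retested.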 A number with no mark means an inactive call. The numbers tell different reagents against one gene apart. Further read-outs or replicates are left out here. Reagent sequences are not shown. Not stated in the record: the amount of reagent.

no.	gene knocked down	reagent	G2 robust z-score	G2 cells, % of GMNN control
1	NPTN (neuroplastin)	1	2.98	24
2	NPTN (neuroplastin)	2	-0.405	0.117
3	NPTN (neuroplastin)	3	-0.472	-0.354
4	SWAP70 (switching B cell complex subunit SWAP70)	1	0.922	9.46
5	SWAP70 (switching B cell complex subunit SWAP70)	2	-0.383	0.27
6	SWAP70 (switching B cell complex subunit SWAP70)	3	3.76	29.4
7	CASP1 (caspase 1)	1	-1.19	-5.37
8	CASP1 (caspase 1)	2	-0.143	1.96
9	CASP1 (caspase 1)	3	-0.915	-3.47
10	CDK2AP1 (cyclin dependent kinase 2 associated protein 1)	1	1.1	10.7
11	CDK2AP1 (cyclin dependent kinase 2 associated protein 1)	2	-0.947	-3.7
12	CDK2AP1 (cyclin dependent kinase 2 associated protein 1)	3	-1.29	-6.12
13	AK5 (adenylate kinase 5)	1	2.07	17.5
14	AK5 (adenylate kinase 5)	2	-0.427	-0.0384
15	AK5 (adenylate kinase 5)	3	0.403	5.8
16	NAT10 (N-acetyltransferase 10)	1	4.38	33.8
17	NAT10 (N-acetyltransferase 10)	2	-0.294	0.9
18	NAT10 (N-acetyltransferase 10)	3	2.81	22.7
19	CD200R1L (CD200 receptor 1 like)	1	2.11	17.8
20	CD200R1L (CD200 receptor 1 like)	2	6.66 (active)	49.8
21	CD200R1L (CD200 receptor 1 like)	3	-0.56	-0.975
22	HAUS5 (HAUS augmin like complex subunit 5)	1	-0.0572	2.57
23	HAUS5 (HAUS augmin like complex subunit 5)	2	0.216	4.49
24	HAUS5 (HAUS augmin like complex subunit 5)	3	-0.702	-1.97
25	PIN1 (peptidylprolyl cis/trans isomerase, NIMA-interacting 1)	1	-0.167	1.79
26	PIN1 (peptidylprolyl cis/trans isomerase, NIMA-interacting 1)	2	9.2 (active)	67.7
27	PIN1 (peptidylprolyl cis/trans isomerase, NIMA-interacting 1)	3	-0.518	-0.677
28	RAB38 (RAB38, member RAS oncogene family)	1	0.0391	3.24
29	RAB38 (RAB38, member RAS oncogene family)	2	8.53 (active)	63
30	RAB38 (RAB38, member RAS oncogene family)	3	-0.205	1.53
31	PEX3 (peroxisomal biogenesis factor 3)	1	-1.25	-5.84
32	PEX3 (peroxisomal biogenesis factor 3)	2	0.795	8.56
33	PEX3 (peroxisomal biogenesis factor 3)	3	0.538	6.75
34	SERHL (serine hydrolase like (pseudogene))	1	-0.136	2.01
35	SERHL (serine hydrolase like (pseudogene))	2	1.5	13.5
36	SERHL (serine hydrolase like (pseudogene))	3	-0.587	-1.16
37	RWDD4 (RWD domain containing 4)	1	1.64	14.5
38	RWDD4 (RWD domain containing 4)	2	-0.622	-1.41
39	RWDD4 (RWD domain containing 4)	3	-0.242	1.26
40	KIZ (kizuna centrosomal protein)	1	-1.5	-7.59
41	KIZ (kizuna centrosomal protein)	2	0.461	6.21
42	KIZ (kizuna centrosomal protein)	3	-0.923	-3.53
43	SAMD3 (sterile alpha motif domain containing 3)	1	-0.816	-2.77
44	SAMD3 (sterile alpha motif domain containing 3)	2	3.39	26.8
45	SAMD3 (sterile alpha motif domain containing 3)	3	6.13 (active)	46.1
46	H3C13 (H3 clustered histone 13)	1	-0.134	2.03
47	H3C13 (H3 clustered histone 13)	2	-0.938	-3.63
48	H3C13 (H3 clustered histone 13)	3	1.69	14.9
49	HPCAL1 (hippocalcin like 1)	1	-0.134	2.02
50	HPCAL1 (hippocalcin like 1)	2	-0.247	1.23
51	HPCAL1 (hippocalcin like 1)	3	0.0576	3.37
52	MED14OS (MED14 opposite strand)	1	-0.262	1.13
53	MED14OS (MED14 opposite strand)	2	-0.814	-2.76
54	MED14OS (MED14 opposite strand)	3	-0.849	-3.01
55	ZNF687 (zinc finger protein 687)	1	-0.453	-0.223
56	ZNF687 (zinc finger protein 687)	2	0.00263	2.99
57	ZNF687 (zinc finger protein 687)	3	-0.256	1.16

13 of these entries in another layout.
{"gene knocked down":"AK5 (adenylate kinase 5)","reagent":3,"G2 robust z-score":0.403,"G2 cells, % of GMNN control":5.8}
{"gene knocked down":"NAT10 (N-acetyltransferase 10)","reagent":1,"G2 robust z-score":4.38,"G2 cells, % of GMNN control":33.8}
{"gene knocked down":"NAT10 (N-acetyltransferase 10)","reagent":2,"G2 robust z-score":-0.294,"G2 cells, % of GMNN control":0.9}
{"gene knocked down":"NAT10 (N-acetyltransferase 10)","reagent":3,"G2 robust z-score":2.81,"G2 cells, % of GMNN control":22.7}
{"gene knocked down":"CD200R1L (CD200 receptor 1 like)","reagent":1,"G2 robust z-score":2.11,"G2 cells, % of GMNN control":17.8}
{"gene knocked down":"CD200R1L (CD200 receptor 1 like)","reagent":2,"G2 robust z-score":"6.66 (active)","G2 cells, % of GMNN control":49.8}
{"gene knocked down":"CD200R1L (CD200 receptor 1 like)","reagent":3,"G2 robust z-score":-0.56,"G2 cells, % of GMNN control":-0.975}
{"gene knocked down":"HAUS5 (HAUS augmin like complex subunit 5)","reagent":1,"G2 robust z-score":-0.0572,"G2 cells, % of GMNN control":2.57}
{"gene knocked down":"HAUS5 (HAUS augmin like complex subunit 5)","reagent":2,"G2 robust z-score":0.216,"G2 cells, % of GMNN control":4.49}
{"gene knocked down":"HAUS5 (HAUS augmin like complex subunit 5)","reagent":3,"G2 robust z-score":-0.702,"G2 cells, % of GMNN control":-1.97}
{"gene knocked down":"PIN1 (peptidylprolyl cis/trans isomerase, NIMA-interacting 1)","reagent":1,"G2 robust z-score":-0.167,"G2 cells, % of GMNN control":1.79}
{"gene knocked down":"PIN1 (peptidylprolyl cis/trans isomerase, NIMA-interacting 1)","reagent":2,"G2 robust z-score":"9.2 (active)","G2 cells, % of GMNN control":67.7}
{"gene knocked down":"PIN1 (peptidylprolyl cis/trans isomerase, NIMA-interacting 1)","reagent":3,"G2 robust z-score":-0.518,"G2 cells, % of GMNN control":-0.677}

Next records follow:
no.	gene knocked down	reagent	G2 robust z-score	G2 cells, % of GMNN control
58	HGFAC (HGF activator)	1	-1.73	-9.24
59	HGFAC (HGF activator)	2	1.49	13.5
60	HGFAC (HGF activator)	3	-0.0983	2.28
61	FAM180B (family with sequence similarity 180 member B)	1	-0.607	-1.3
62	FAM180B (family with sequence similarity 180 member B)	2	1.35	12.5
63	FAM180B (family with sequence similarity 180 member B)	3	-0.707	-2.01
64	TSR1 (TSR1 ribosome maturation factor)	1	2.2	18.4
65	TSR1 (TSR1 ribosome maturation factor)	2	-0.764	-2.41
66	TSR1 (TSR1 ribosome maturation factor)	3	2.93	23.6
67	XPO7 (exportin 7)	1	-0.674	-1.77
68	XPO7 (exportin 7)	2	-0.302	0.843
69	XPO7 (exportin 7)	3	-1.06	-4.47
70	IGF2BP1 (insulin like growth factor 2 mRNA binding protein 1)	1	-1.27	-5.99
71	IGF2BP1 (insulin like growth factor 2 mRNA binding protein 1)	2	0.0265	3.15
72	IGF2BP1 (insulin like growth factor 2 mRNA binding protein 1)	3	0.86	9.02
73	CCDC187 (coiled-coil domain containing 187)	1	4.12	32
74	CCDC187 (coiled-coil domain containing 187)	2	-0.473	-0.363
75	CCDC187 (coiled-coil domain containing 187)	3	-1.15	-5.15
76	FGFR4 (fibroblast growth factor receptor 4)	1	0.17	4.16
77	FGFR4 (fibroblast growth factor receptor 4)	2	-1.09	-4.71
78	FGFR4 (fibroblast growth factor receptor 4)	3	-1.19	-5.37
79	RFC3 (replication factor C subunit 3)	1	1.07	10.5
80	RFC3 (replication factor C subunit 3)	2	-0.359	0.441
81	RFC3 (replication factor C subunit 3)	3	6.58 (active)	49.3
82	EDAR (ectodysplasin A receptor)	1	0.112	3.76
83	EDAR (ectodysplasin A receptor)	2	1.14	11
84	EDAR (ectodysplasin A receptor)	3	-0.435	-0.0934
85	CTXN1 (cortexin 1)	1	0.352	5.44
86	CTXN1 (cortexin 1)	2	-0.293	0.904
87	CTXN1 (cortexin 1)	3	-0.68	-1.82
